Measurements from “University of Dundee, Small-Polar-MMV Screening Library” (2021), ChEMBL document CHEMBL3988442.

By UniProt entry, the sequences of proteins in these tests, tags left out.
UniProt E9BF75, entry or part of it: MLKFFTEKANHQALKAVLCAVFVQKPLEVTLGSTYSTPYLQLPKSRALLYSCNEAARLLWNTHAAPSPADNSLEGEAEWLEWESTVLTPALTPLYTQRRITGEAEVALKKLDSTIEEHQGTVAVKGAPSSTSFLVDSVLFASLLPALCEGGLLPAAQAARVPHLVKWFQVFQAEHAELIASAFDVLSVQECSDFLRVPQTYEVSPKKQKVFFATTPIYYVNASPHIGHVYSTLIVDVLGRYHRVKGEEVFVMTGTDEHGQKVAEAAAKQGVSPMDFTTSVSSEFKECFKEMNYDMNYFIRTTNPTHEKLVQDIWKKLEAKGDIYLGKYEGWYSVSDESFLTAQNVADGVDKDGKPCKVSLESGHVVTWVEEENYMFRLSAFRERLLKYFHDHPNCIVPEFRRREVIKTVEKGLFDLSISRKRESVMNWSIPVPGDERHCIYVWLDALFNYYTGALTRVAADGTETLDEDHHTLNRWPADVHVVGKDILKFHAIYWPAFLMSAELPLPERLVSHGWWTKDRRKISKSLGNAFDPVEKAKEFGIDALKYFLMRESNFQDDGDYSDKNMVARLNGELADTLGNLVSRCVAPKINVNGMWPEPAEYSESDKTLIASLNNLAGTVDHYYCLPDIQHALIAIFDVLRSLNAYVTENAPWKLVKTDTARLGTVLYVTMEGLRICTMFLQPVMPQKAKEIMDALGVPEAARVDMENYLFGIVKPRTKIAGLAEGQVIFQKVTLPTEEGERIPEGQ

All values are in %.
The record does not define 0% and 100%; most values in the screen are far below 50% and negative numbers occur (in some assays of this library far below -100).
The compounds are a random part of those screened.
A dash means the value is not listed here; it may have been measured.

LdMetRS: 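Primary screen of methionyl-tRNA synthetase; the read-out is not stated. Target: Methionyl-tRNA synthetase (putative), Leishmania donovani (UniProt E9BF75). The test concentration is not given. Values are per cent inhibition. Size under these conditions: about 68,000 compounds, about 24 of them at 50% or above in at least one test.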
Mtb heat-shock: 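Assay on Mycobacterium tuberculosis, filed only as a heat shock assay from Cornell; the read-out is not stated. The concentration is filed as 10 mM, unlikely as a test dose, so the dose is not known. The record gives no direction; compounds that gave an IC50 in retests scored well above the rest, so higher reads as stronger inhibition. Size under these conditions: about 69,000 compounds, about 930 of them at 50% or above in at least one test.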

| SMILES | LdMetRS | Mtb heat-shock |
|---|---|---|
| `CCOCCC(=O)N1CCCCC1CCn1cccn1` (centres undefined) | 0.274 | -49.88 |
| `CCN1CCn2c(C)cnc2C12CCN(C(=O)NCC(C)C)CC2` | 2.885 | - |
| `COc1cc(N2CC[C@@H](O)[C@@H]2Cc2ccccc2)ncn1` | 2.667 | -15.94 |
| `Cc1cccc(CN2CCC3(CCN(c4ncccn4)C3)C2=O)c1` (centres undefined) | 15.69 | -17.59 |
| `CN(C)S(=O)(=O)c1ccc(=O)n(CC2CCCCO2)c1` (centres undefined) | 13.17 | -11.9 |
| `CCOc1ccccc1CN1CCc2nc3ccsc3c(=O)n2CC1.Cl` | - | -0.8022 |
| `Cn1cc(C2CCCN2C(=O)CS(=O)(=O)C2CCCC2)cn1` (centres undefined) | 17.13 | 10.48 |
| `CN1CCC(O)(CNC(=O)c2cc(COc3cccc(F)c3)[nH]n2)CC1` | 21.77 | -24.54 |
| `Cc1ccccc1NCc1nc2n(n1)CCCCC2` | 13.03 | 3.875 |
| `O=C(NS(=O)(=O)c1ccc(F)cc1)C1CCOc2ccccc21` (centres undefined) | 15.03 | -9.065 |
| `c1ccc(CN2CCN(Cc3cscn3)CC2)cc1` | 15.28 | 2.518 |
| `[H][C@]12CN(CC3CC3)C(=O)[C@@]1([H])CN(c1ncc(F)cn1)C2` | - | 21.92 |
| `CCC(=O)N1CCC(c2nnc(Cn3cccn3)n2C2CC2)CC1` | 13.27 | -0.4086 |
| `CC(=O)N1CCC2(CCN(CC3CCOC3)C2)CC1` (centres undefined) | 16.02 | 2.086 |
| `COCCC(=O)N1CC2(CCN(c3ccccc3)C2)C1` | -14.79 | -24.11 |
| `O=C(c1cc(-n2cccn2)ccn1)N1CCOc2ccncc21` | - | -25.12 |
| `CCOc1ccc(C#N)cc1NCC(=O)NC1(C#N)CCCC1` | 20 | -4.225 |
| `O=C(NC1CC1)N1CCc2ccc(=O)n(Cc3cccnc3)c2CC1` | 5.19 | - |
| `CNS(=O)(=O)c1ccc(CNC(=O)NCC2CCCO2)cc1` (centres undefined) | 4.861 | 2.323 |
| `CC(C)NC(=O)N1CCCC2(CCN(c3ccccc3)C2=O)C1` (centres undefined) | 16.81 | 9.814 |
| `Cc1ccc(Oc2ncccc2CNC2CCOCC2)cn1` | 8.541 | 15.93 |
| `O=C(C1CCOCC1)N1CCC2(CCNCC2)C1` | 0.5602 | 7.824 |
| `Cc1cc(F)ccc1CN1CCCC2(C1)OCCO2` | 10.48 | 7.015 |
| `Clc1ccc2[nH]c3c(c2c1)CCCC3c1nn[nH]n1` (centres undefined) | 16.13 | 9.644 |
| `Cn1ncc2c(N3CCCC(C)(O)C3)nc(C(C)(C)C)nc21` (centres undefined) | 10.08 | 0.1047 |
| `Cc1csc(CN2CCC[C@]3(C[C@@H](Oc4ccccn4)CO3)C2)n1.O=C(O)C(F)(F)F.O=C(O)C(F)(F)F` | - | -18.33 |
| `O=S(=O)(C1CC1)N1C[C@H]2CCC[C@@]2(COc2ccccn2)C1` | 14.52 | - |
| `Cc1nc(CN2CCN(C)C(=O)C23CCN(C(C)C)CC3)cs1` | 2.747 | - |
| `CC(C)n1nc(Cn2cccc2)c2c1CN(C1CCOCC1)C2.O=C(O)C(F)(F)F` | - | -6.45 |
| `O=C(O)C(F)(F)F.O=C1COC2(CCN(CC3CCC3)CC2)CN1c1cncnc1` | - | -21.31 |
| `CC(=O)NCC1CCCN(C(=O)Cc2c(C)noc2C)C1` (centres undefined) | 11.15 | -16.62 |
| `COc1ccc(C)c2c1N(C(=O)c1cnc3onc(C)c3c1)CCC2` | 12.42 | 6.219 |
| `[H][C@]12CCC[C@@]1(COCC1CC1)CN(C(=O)Cc1ccco1)C2` | - | 6.105 |
| `[H][C@@]12C[C@H](C(=O)N3CCOCC3)[C@@]([H])(CN(C(=O)NCC3CCCCC3)C1)O2` | - | -4.414 |
| `[H][C@@]12CS(=O)(=O)C[C@]1([H])N(Cc1nc3ccccc3[nH]1)CCN2CC1CC1` | - | -11.72 |
| `COc1ccc(-c2nc(C(=O)NCC3CCOC3)cs2)cc1OC` (centres undefined) | 2.564 | -4.353 |
| `CNCCc1nc2cc(Cl)ccc2[nH]1` | 0.9756 | - |
| `CCc1nnc2n1CCN(Cc1cccc3c1OCCO3)C2` | 9.206 | 3.913 |
| `CN(CCO)C(=O)Nc1ccn(-c2cccc(C(F)(F)F)c2)n1` | 12.57 | 0.9307 |
| `Cc1ccc2c(cnn2CCC(=O)NCc2csc(C)n2)c1` | 16.84 | -4.475 |
| `CCC(C(=O)NC1(CN2CCOCC2)CCCC1)n1cccn1` (centres undefined) | 9.756 | -6.302 |
| `O=C(O)C(F)(F)F.[H][C@@]12CN(Cc3ccccn3)C[C@]1([H])CN(C(=O)c1cccc(F)c1)C2` | - | -10.41 |
| `CCCSCC(=O)Nc1ncn(CC(=O)N2CCCCCC2)n1` | 12.32 | 27.52 |
| `CCCn1nc(C)c(-c2cncn2CCN(C)C2CCCC2)c1C.Cl` | - | 7.382 |
| `CCN1CCCC(c2c(-c3ccccc3)ncn2Cc2csc(N)n2)C1` (centres undefined) | -0.7519 | -44.7 |
| `Cc1cc(C(F)(F)F)nc(N(C)Cc2c(C)noc2C)n1` | 1.393 | -30.1 |
| `O=C(c1cc(Cn2ccc3ccccc32)[nH]n1)N1CCCCC1CO` (centres undefined) | -2.452 | -7.25 |
| `CN1Cc2nc[nH]c2C[C@H]1C(=O)NC1CCCCC1` | 9.341 | 1.491 |
| `CCn1nnnc1-c1cccc(NC(=O)COC2CCCC2)c1` | 1.393 | -33.42 |
| `O=S(=O)(c1cccs1)N1Cc2nc(CN3CCCC3)oc2C1` | 1.76 | - |
| `NC(=O)NC(=O)CCSc1ccccc1Cl` | 7.419 | -8.579 |
| `O=C1N(c2ccccc2)Cc2n[nH]c(=O)n21` | 0.6944 | 9.479 |
| `COc1ccc(CNC(=O)NCC2CCOC2)c(C(F)(F)F)c1` (centres undefined) | 18.58 | 4.622 |
| `c1csc(CN2CCn3c(Cn4cncn4)cnc3C2)c1` | 6.965 | - |
| `O=C(NC1CCc2ccccc2C1)N1CCN(C(=O)C2CCC2)CC1` (centres undefined) | 0.7371 | -50.7 |
| `c1cncc(-c2nnc([C@H]3CCN(CC4CCCCC4)C3)o2)c1` | 1.648 | 5.574 |
| `Cc1nn(-c2ccccc2)nc1C(=O)N1CCCC(n2cccn2)C1` (centres undefined) | 14.16 | -9.863 |
| `Cc1csc(CNC(=O)NC2CCCN(S(C)(=O)=O)C2)n1` (centres undefined) | 5.245 | 18.11 |
| `Cc1ccc(CN2CC[C@@H](O)[C@@H]2Cc2cnn(C)c2)o1.O=C(O)C(F)(F)F` | - | 1.396 |
| `OCC(O)CSCc1nnc(-c2cccc(F)c2)o1` (centres undefined) | 10.21 | 15.9 |
| `c1ccc(-c2nc(CNC3CCCN(c4cccnn4)C3)no2)cc1` (centres undefined) | 17.39 | -15.92 |
| `CCOc1ncnc2c1CCN(C(=O)CN(C)C)CC2.O=C(O)C(F)(F)F` | - | -33.83 |
| `CCN(Cc1ccc2c(c1)OCO2)c1ncc(S(N)(=O)=O)s1` | 20.85 | -136.6 |
| `CC(=O)N1CCN(Cc2nccs2)CC2(CC(=O)N(C)C2)C1` (centres undefined) | -242.6 | - |
| `[H][C@]12CN(C(=O)c3cnn(C)c3)CC[C@@]1(O)CCN(C(=O)C1CCC1)C2` | - | -11.32 |
| `CCOCCCC(=O)N(C)C(c1cccc(F)c1)c1ccccn1` (centres undefined) | 17.05 | 5.974 |
| `O=C(CCNc1ncccn1)Nc1ccc(Cn2cncn2)cc1` | 13.48 | 5.087 |
| `NC(=O)CC1CCN(C(=O)NCC2(c3ccccc3F)CC2)CC1` | 8.659 | -13.51 |
| `O=C(NCc1ccccn1)[C@@H]1COC[C@H]2CNC[C@H]21` | 11.68 | - |
| `Cn1cnnc1CNC(=O)C1CCCN(Cc2ccccc2)C1` (centres undefined) | 3.846 | -13.47 |
| `CCNC(=O)N1CCCCC1CCNS(C)(=O)=O` (centres undefined) | 6.884 | 3.335 |
| `O=C(N1CCCC1)N1CCO[C@H]2[C@@H](Oc3ccccn3)CC[C@@H]21` | 11.5 | - |
| `CS(=O)(=O)N[C@@H]1CCN(Cc2nccs2)[C@H]1Cc1ccncc1` | 14.49 | - |
| `CN(C)C(=O)Cc1ccccc1NCc1nc(Cc2ccccc2)no1` | 10.94 | 9.428 |
| `CCn1nccc1CNC(=O)C1CCCCC1` | -5.211 | 2.946 |
| `CCN1CC(C(=O)N(C)Cc2cc3cc(F)ccc3[nH]2)CC1=O` (centres undefined) | 22.4 | -8.91 |
| `Cn1nc(-c2cccs2)cc1[C@H]1CN2CC[C@H]1C[C@@H]2CN` | 4.511 | - |
| `[H][C@]12CCN(S(=O)(=O)c3ccc(C)cc3)[C@@]1([H])[C@@H](NC(=O)c1n[nH]cc1Cl)C2` | - | -5.585 |
| `O=C(O)C(F)(F)F.O=C(c1ccoc1)N1CCC2(CCC(=O)N2Cc2ccncc2)CC1` | - | -4.475 |
| `CN(Cc1noc2c1CCCC2)C(=O)Cn1c(=O)cnc2ccccc21` | 11.72 | 23.53 |
| `CC(C)N1CCO[C@H]2CN(C(=O)c3ccccn3)C[C@H]21` | 9.333 | - |
| `CCNC(=O)CN1CCN(c2ccnc3c(F)ccc(F)c23)CC1` | 13.46 | -25.37 |
| `[H][C@@]12C[C@H](C)O[C@]1([H])CCN(C(=O)CCOC)C2` | - | -1.067 |

8 of the entries, repeated:

* CCNC(=O)N1CCCCC1CCNS(C)(=O)=O (centres undefined) : LdMetRS: 6.884%; Mtb heat-shock: 3.335%
* [H][C@@]12C[C@H](C)O[C@]1([H])CCN(C(=O)CCOC)C2 : Mtb heat-shock: -1.067%
* COCCC(=O)N1CC2(CCN(c3ccccc3)C2)C1 : LdMetRS: -14.79%; Mtb heat-shock: -24.11%
* CCn1nccc1CNC(=O)C1CCCCC1 : LdMetRS: -5.211%; Mtb heat-shock: 2.946%
* O=C(NCc1ccccn1)[C@@H]1COC[C@H]2CNC[C@H]21 : LdMetRS: 11.68%
* O=C(O)C(F)(F)F.[H][C@@]12CN(Cc3ccccn3)C[C@]1([H])CN(C(=O)c1cccc(F)c1)C2 : Mtb heat-shock: -10.41%
* Cc1cc(F)ccc1CN1CCCC2(C1)OCCO2 : LdMetRS: 10.48%; Mtb heat-shock: 7.015%
* COc1ccc(-c2nc(C(=O)NCC3CCOC3)cs2)cc1OC (centres undefined) : LdMetRS: 2.564%; Mtb heat-shock: -4.353%